{"sequences": {"note": "Amino acid sequences for entries named in this document (tags omitted). Residues count along the entry.", "UniProt O15123, residues 19-496": "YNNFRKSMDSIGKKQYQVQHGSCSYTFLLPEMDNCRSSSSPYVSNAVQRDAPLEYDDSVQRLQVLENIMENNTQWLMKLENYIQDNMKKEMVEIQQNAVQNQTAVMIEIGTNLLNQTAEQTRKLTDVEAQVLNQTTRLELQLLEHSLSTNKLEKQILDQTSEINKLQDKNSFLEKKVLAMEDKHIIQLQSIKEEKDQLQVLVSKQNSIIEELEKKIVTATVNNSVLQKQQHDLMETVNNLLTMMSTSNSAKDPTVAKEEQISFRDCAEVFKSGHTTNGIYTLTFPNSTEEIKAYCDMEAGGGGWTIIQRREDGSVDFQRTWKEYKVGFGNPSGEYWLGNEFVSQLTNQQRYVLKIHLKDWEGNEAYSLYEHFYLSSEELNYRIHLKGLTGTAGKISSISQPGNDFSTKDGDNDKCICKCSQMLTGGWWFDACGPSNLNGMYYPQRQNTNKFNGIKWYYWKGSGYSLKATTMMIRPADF"}, "source": "patent US20030229023A1", "molecular_target": "Recombinant Human Angiopoietin-2, R&D Systems (human) (UniProt O15123)", "test": "phage display selection and phage ELISA", "note": "These are yes or no findings as the source states them, for the method shown. Some results given as binding are weak or reduced against the parent protein; the word gives no strength."}
{"binder": "KRPCEEMWGGCNYD", "note": "[TN8-8]", "values": [{"measurement": "binding", "value": "binds"}]}
{"binder": "HQICKWDPWTCKHW", "note": "[TN8-14]", "values": [{"measurement": "binding", "value": "binds"}]}
{"binder": "KRPCEEIFGGCTYQ", "note": "[TN8-Con1]", "values": [{"measurement": "binding", "value": "binds"}]}
{"binder": "QEECEWDPWTCEHM", "note": "[TN8-Con4]", "values": [{"measurement": "binding", "value": "binds"}]}
{"binder": "FDYCEGVEDPFTFGCDNH", "note": "[TN12-9]", "values": [{"measurement": "binding", "value": "binds"}]}
{"binder": "KFNPLDELEETLYEQFTFQQ", "note": "[L1]", "values": [{"measurement": "binding", "value": "binds"}]}
